Data reported in paper PMC4965873.
No constants are given. Whether binding was seen depends on the method and setting. In cells and extracts the contact can be indirect. Some results given as binding are weak or reduced against the parent protein; the word gives no strength.

Protein sequences, listed by entry. Tags and fused reporters are not part of them.
UniProt O08908: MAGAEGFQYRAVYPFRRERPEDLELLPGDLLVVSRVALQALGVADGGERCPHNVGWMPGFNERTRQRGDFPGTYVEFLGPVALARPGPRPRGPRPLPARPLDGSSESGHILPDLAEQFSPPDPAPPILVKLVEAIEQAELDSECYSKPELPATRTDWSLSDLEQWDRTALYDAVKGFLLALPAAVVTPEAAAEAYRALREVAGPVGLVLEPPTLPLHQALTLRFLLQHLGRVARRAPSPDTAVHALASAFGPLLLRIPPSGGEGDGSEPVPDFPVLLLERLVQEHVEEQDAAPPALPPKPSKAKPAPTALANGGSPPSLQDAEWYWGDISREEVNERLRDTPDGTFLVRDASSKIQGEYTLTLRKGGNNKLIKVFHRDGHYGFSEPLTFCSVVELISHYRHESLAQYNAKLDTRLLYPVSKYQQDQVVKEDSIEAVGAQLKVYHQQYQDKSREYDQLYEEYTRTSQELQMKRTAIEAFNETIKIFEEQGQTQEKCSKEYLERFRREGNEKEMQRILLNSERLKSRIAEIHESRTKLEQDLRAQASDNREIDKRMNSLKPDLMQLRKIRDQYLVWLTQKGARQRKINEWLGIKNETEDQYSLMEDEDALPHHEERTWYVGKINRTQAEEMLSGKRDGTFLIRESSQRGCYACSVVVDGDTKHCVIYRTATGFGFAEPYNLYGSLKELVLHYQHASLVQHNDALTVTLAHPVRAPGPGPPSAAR
UniProt P41241: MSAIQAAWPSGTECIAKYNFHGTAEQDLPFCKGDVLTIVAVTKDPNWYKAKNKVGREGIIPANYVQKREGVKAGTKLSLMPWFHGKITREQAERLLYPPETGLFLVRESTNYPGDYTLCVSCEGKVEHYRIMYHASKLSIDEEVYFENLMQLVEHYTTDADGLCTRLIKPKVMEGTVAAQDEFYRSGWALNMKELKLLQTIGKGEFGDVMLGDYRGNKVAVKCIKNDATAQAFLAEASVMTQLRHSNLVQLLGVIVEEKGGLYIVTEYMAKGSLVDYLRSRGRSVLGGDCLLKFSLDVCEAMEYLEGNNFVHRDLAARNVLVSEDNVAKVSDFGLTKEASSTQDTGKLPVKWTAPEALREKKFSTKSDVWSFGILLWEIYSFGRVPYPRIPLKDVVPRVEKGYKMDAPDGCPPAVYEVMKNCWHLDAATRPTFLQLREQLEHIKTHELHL
UniProt Q3TTA7: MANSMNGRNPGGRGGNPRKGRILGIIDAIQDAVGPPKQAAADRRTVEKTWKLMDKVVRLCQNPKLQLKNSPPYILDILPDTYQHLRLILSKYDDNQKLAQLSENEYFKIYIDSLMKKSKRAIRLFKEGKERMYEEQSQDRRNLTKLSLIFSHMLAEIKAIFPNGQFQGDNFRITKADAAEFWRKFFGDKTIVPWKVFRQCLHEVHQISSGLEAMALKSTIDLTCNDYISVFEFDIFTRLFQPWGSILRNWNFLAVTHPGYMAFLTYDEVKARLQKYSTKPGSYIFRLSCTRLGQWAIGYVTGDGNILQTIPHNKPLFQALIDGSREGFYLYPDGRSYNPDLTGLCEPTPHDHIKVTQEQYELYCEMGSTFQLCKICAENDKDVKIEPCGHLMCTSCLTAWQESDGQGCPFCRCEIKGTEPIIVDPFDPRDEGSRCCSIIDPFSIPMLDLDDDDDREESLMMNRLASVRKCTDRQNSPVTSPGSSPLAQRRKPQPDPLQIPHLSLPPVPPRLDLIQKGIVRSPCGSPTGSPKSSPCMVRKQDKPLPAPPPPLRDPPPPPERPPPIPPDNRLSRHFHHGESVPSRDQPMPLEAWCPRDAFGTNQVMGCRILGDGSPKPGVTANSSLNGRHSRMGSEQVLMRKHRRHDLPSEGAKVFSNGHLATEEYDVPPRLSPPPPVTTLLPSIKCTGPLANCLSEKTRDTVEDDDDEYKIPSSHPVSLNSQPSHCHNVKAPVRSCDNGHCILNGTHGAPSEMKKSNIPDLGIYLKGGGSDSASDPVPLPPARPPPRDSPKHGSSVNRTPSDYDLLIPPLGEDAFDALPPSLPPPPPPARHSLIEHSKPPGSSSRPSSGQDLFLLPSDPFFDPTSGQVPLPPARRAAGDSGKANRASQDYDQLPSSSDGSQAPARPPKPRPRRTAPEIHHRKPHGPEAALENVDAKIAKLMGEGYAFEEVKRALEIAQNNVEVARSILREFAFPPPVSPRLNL

Tests used:
Assay in all cases: co-IP; immunoprecipitation (1.5 h, Pansorbin) with anti-CBL, anti-CBLB, anti-CSK, anti-CRKL or anti-p85-PI3K from lysates (n-dodecyl-β-maltoside) of expanded mouse CD4+ T cells, unstimulated or stimulated 1 min with anti-CD3 + anti-CD4; immunoblot; isotype control; cells of wild-type, Cblb-/-, Cbl-/- and Cd5-/- mice
[1] = biological target: CBL (mouse (endogenous in CD4+ T cells)) (UniProt P22682)
[2] = biological target: PIK3R2 (mouse (endogenous in CD4+ T cells)) (UniProt O08908)
[3] = biological target: CSK (mouse (endogenous in CD4+ T cells)) (UniProt P41241)
[4] = biological target: CBLB (mouse (endogenous in CD4+ T cells)) (UniProt Q3TTA7)

- binding [1]: binds
- binding [2]: no binding
- binding [3]: binds
- binding [4]: binds
B1: CD5 (receptor, UniProt P13379 24-494)
chain: QSGRGGLDIQVMLSGSNSKCQGQVEIQMENKWKTVCSSSWRLSQDHSKNAQQASAVCKQLRCGDPLALGPFPSLNRPQNQVFCQGSPWSISNCNNTSSQDQCLPLSLICLEPQRTTPPPTTTPPTTVPEPTAPPRLQLVPGHEGLRCTGVVEFYNGSWGGTILYKAKDRPLGLGNLICKSLQCGSFLTHLSGTEAAGTPAPAELRDPRPLPIRWEAPNGSCVSLQQCFQKTTAQEGGQALTVICSDFQPKVQSRLVGGSSVCEGIAEVRQRSQWEALCDSSAARGRGRWEELCREQQCGDLISFHTVDADKTSPGFLCAQEKLSQCYHLQKKKHCNKRVFVTCQDPNPAGLAPGTVASIILTLVLLVVLLAMCGPLVYKKLVKKFRQKKQRQWIGPTGVNQNMSFHRSHTATVRSQVENPTASHVDNEYSQPPRNSHLSAYPALEGALHRSSTQPDNSSDSDYDLQVAQRL
